Some of the results follow. Shown are side measurements of this screen, not its main read-out; they come without a call. Most of these compounds were active or inconclusive in the main read-out, so they are no random draw. The note in brackets gives the kind of curve behind each potency; many fits are weak.
Assay: qHTS Assay to Find Inhibitors of Chronic Active B-Cell Receptor Signaling
Details: ABC-DLBCL IkBa-CBG/CBR reporter, luminescence ratio (green luciferase fused to IkBa over red control in TMD8 lymphoma cells), 4 h
Outline: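 Cell line TMD8 (human ABC DLBCL), stably expressing tet-inducible CBG68-IkBa fusion and CBR; IMDM/0.5% FBS; cpd up to 46 uM; dox induction, 4 h, 37C/5% CO2; dual luminescence; green/red ratio; MG132 control.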

[1] = measured here: CBR red luminescence, cell number
[2] = measured here: IkBa-CBG green luminescence

Row | SMILES | AC50 [1] | AC50 [2]
1 | COCCCNC(=O)Cn1nnc(-c2ccc(NC(=O)c3ccccc3OC)cc2)n1 | 6.31 µM [falling, partial curve, poor fit] | –
2 | COc1ccc(Cc2cc(NCc3ccccc3)c3ncn(C(C)C)c3c2)cc1 | 29.1 µM [falling, single point] | –
3 | C=CCOC(=O)C1=C[C@@H](c2ccc(Br)cc2)[C@H](CCCO)[C@@H](OCC)O1 | 0.1 µM [rising, full curve, poor fit] | –
4 | COC(=O)Cn1c(=NC(=O)c2cccc(OC)c2)sc2cc(OC)ccc21 | 4.11 µM [falling, full curve] | –
5 | O=C(CN1CCOCC1)Nc1nc(-c2ccccc2)cs1 | 12.6 µM [falling, single point] | –
6 | CCCCNS(=O)(=O)c1ccc2nc(-c3cccnc3)cc(C(=O)NC3CCCC3)c2c1 | 1.12 µM [rising, partial curve, poor fit] | –
7 | O=c1cc(-c2ccccc2Cl)oc2c(NS(=O)(=O)c3ccccc3OC(F)(F)F)ccc(O)c12 | 35.5 µM [falling, single point] | –
8 | CCOC(=O)c1sc(NC(=O)Nc2cccc(Cl)c2)cc1C | 29.1 µM [falling, single point] | –
9 | CNCCCC1Sc2ccccc2Oc2ccccc21 (stereo not drawn) | 10.3 µM [falling, partial curve, poor fit] | –
10 | CCOC(=O)Cn1c(=O)c(C#N)cn(C(C)C)c1=O | 11.2 µM [rising, partial curve, poor fit] | –
11 | COc1ccc(CN(CC(=O)NCC2CCCO2)C(=O)CCC(=O)Nc2nccs2)cc1 (stereo not drawn) | 1.41 µM [rising, full curve, poor fit] | –
12 | COc1cccc(C(=O)Nc2ccc(F)cc2F)c1 | 23.1 µM [falling, partial curve, poor fit] | –
13 | CCCCN1C(=O)CC(C(=O)OCC)=C1C | 5.62 µM [falling, single point] | –
14 | CC(=O)c1c(C)[nH]c(C(=O)CN2C(=O)NC(C)(c3ccc4c(c3)OCO4)C2=O)c1C (stereo not drawn) | 11.2 µM [falling, partial curve, poor fit] | –
15 | Cc1ccc(-c2csc(N3CCN(c4cc5c(cc4Cl)nc(-c4ccncc4)n5CCOCCO)CC3)n2)cc1 | 3.16 µM [falling, partial curve, poor fit] | –
16 | Cc1ccc(C)c(OCCOCCN2CC(C)OC(C)C2)c1C (stereo not drawn) | 29.1 µM [rising, single point] | –
17 | C=CCn1c(SCC(=O)N2CCN(c3ccccc3)CC2)nnc1-c1ccco1 | 6.51 µM [rising, full curve, poor fit] | –
18 | CCOC(=O)/C(C#N)=C/NC(=O)NC(C)(C)C | 6.51 µM [falling, partial curve, poor fit] | –
19 | O=C(CC(=O)c1ccccc1)Nc1cccnc1 | 18.4 µM [falling, partial curve] | –
20 | CC(C)(C)n1nc2c(c1NC(=O)Cc1cccs1)CSC2 | 20.6 µM [rising, single point] | –
21 | O=C(/C=C/Nc1ccc(F)c(F)c1)c1ccc(Br)cc1 | 8.2 µM [falling, partial curve] | –

Row | SMILES | AC50 [1] | AC50 [2]
22 | CCN(CC)Cc1cc2[nH]c3c4ccc(Cl)cc4ncc3c2cc1OC | 8.91 µM [falling, partial curve, poor fit] | –
23 | N#CCn1c(C2CCCCC2)nc2ccccc2c1=O | 0.631 µM [rising, full curve, poor fit] | 7.94 µM [falling, partial curve, poor fit]
24 | COc1cc(OC)cc(C(=O)NC(=S)Nc2nc(-c3cc4ccccc4o3)cs2)c1 | 0.112 µM [rising, full curve, poor fit] | –
25 | Cc1ccc(O)c(CNc2ccc(S(=O)(=O)Nc3nccs3)cc2)c1 | 0.708 µM [rising, partial curve, poor fit] | –
26 | O=C(N1CCCC1)C(F)(F)Oc1ccc(F)cc1 | 25.1 µM [rising, single point] | –
27 | Cc1[nH]n(-c2ccccc2)c(=O)c1/C=N/NC(=O)c1cccc(F)c1 | 5.01 µM [falling, full curve] | –
28 | CCNC(=O)N(C)C[C@H]1N[C@@](C)(C(=O)OC)[C@H]2C(=O)N(C)C(=O)[C@@H]12 | 25.9 µM [rising, single point] | –
29 | C=CC(=O)N=c1sc2ccccc2n1-c1ccccc1 | 11.2 µM [falling, partial curve] | 17.8 µM [rising, single point]
30 | COc1ccc(OCc2nnc(SCC(=O)Nc3ccccc3Cl)o2)cc1 | 3.55 µM [falling, single point] | –
31 | Cc1ccccc1C(=O)OC1OC(=O)C(Cl)=C1N1CCOCC1 (stereo not drawn) | 16.4 µM [falling, partial curve, poor fit] | –
32 | CCOC(=O)COc1ccc2cc(C(=O)OCC)c(=O)oc2c1 | 35.5 µM [rising, single point] | –
33 | C/C(=N\NC(=O)CNc1cccc(C(F)(F)F)c1)c1cccc(Br)c1 | – | 16.4 µM [rising, partial curve, poor fit]
34 | Cc1ccc(NC(=O)N2CCc3ccccc3C2)cc1C | 11.2 µM [falling, single point] | –
35 | NC(=O)c1ccc(NC(=O)c2cccc(Oc3ccccc3)c2)cc1 | 2 µM [falling, full curve] | –
36 | CCCN1CN=C(Nc2nc3ccccc3o2)NC1 | 6.31 µM [rising, single point] | –
37 | O=C(Nc1cccc(Br)c1)c1cccc(OC(=S)N2CCOCC2)c1 | 17.8 µM [falling, single point] | –
38 | Brc1cccc(CNc2nc3ccccc3n2CCN2CCOCC2)c1 | 17.8 µM [falling, single point] | –
39 | COc1ccc(/C=N/NC(=O)c2ccoc2C)cc1COc1c(C)cccc1C | 12.6 µM [falling, partial curve, poor fit] | –
40 | COc1c(C)cccc1C(=O)Nc1ccc(OCC(=O)N2CCOCC2)cc1C | 0.562 µM [falling, full curve] | –
41 | COc1ccc(Cc2nnc(SCC(=O)N(C)CC(=O)Nc3ccc(C)cc3)o2)cc1 | 29.1 µM [rising, single point] | –
42 | Cc1ccc(S(=O)(=O)N2CCN(C(=O)Cn3nc(C)c([N+](=O)[O-])c3C)CC2)c(C)c1 | 15.8 µM [falling, single point] | –

Row | SMILES | AC50 [1] | AC50 [2]
43 | C=C(C)C(=O)N1CC2(CC(c3cccc(NC(=O)c4ccccc4)c3)=NO2)C[C@@H]1C(N)=O (stereo partly drawn) | 10 µM [falling, partial curve] | –
44 | Cc1ccc2[nH]c3nc(NN)nnc3c2c1 | 28.2 µM [falling, single point] | –
45 | COc1cc([N+](=O)[O-])ccc1N/C=C/C(=O)c1cccs1 | 7.08 µM [falling, partial curve, poor fit] | –
46 | NC(=S)N/N=C/c1ccc(-c2ccc(Cl)c(Cl)c2)o1 | 20.6 µM [falling, partial curve] | 20.6 µM [falling, single point]
47 | COc1ccc(NS(=O)(=O)c2ccc(N)cc2)nn1 | 29.1 µM [rising, partial curve, poor fit] | –
48 | CC(C)n1cnc2c(NCc3ccccc3)cc(N[C@H](C)CO)cc21 | 20.6 µM [falling, partial curve] | –
49 | COc1ccccc1OCC(=O)Nc1ccc(Cl)cc1 | 18.4 µM [falling, partial curve] | –
50 | O=C(O)c1cc2c(ccc3ccccc32)[nH]1 | 1.46 µM [rising, partial curve, poor fit] | –
51 | Cc1ccc(CNC(=O)CCCCCNC(=O)N2CCn3c2nc2ccccc23)cc1 | 11.2 µM [falling, partial curve, poor fit] | –
52 | COc1nn(CC(=O)N2N=C(C)CC2(O)C(F)(F)F)cc1[N+](=O)[O-] (stereo not drawn) | 13 µM [rising, partial curve, poor fit] | –
53 | O=C(Nc1ccc2c(c1)OCCO2)c1ccc(Cl)c(S(=O)(=O)N2CCOCC2)c1 | 35.5 µM [falling, single point] | –
54 | COC(=O)C1C(=O)c2c(C)noc2CC1(C)C (stereo not drawn) | 14.1 µM [rising, single point] | –
55 | Cc1c2n(c3ccccc13)CC/C2=N\O | 10 µM [rising, partial curve, poor fit] | –
56 | O=C(COc1ccccc1[N+](=O)[O-])N1CCN(C(=O)c2ccco2)CC1 | 22.4 µM [falling, single point] | –
57 | CC(C)(C)c1cnnn1-c1ccc(C(=O)CCl)cc1 | 29.1 µM [falling, single point] | –
58 | O=C(CSc1nnc(Cn2c(=O)sc3ccccc32)n1-c1ccccc1)Nc1nccs1 | 11.6 µM [falling, partial curve] | 23.1 µM [rising, partial curve, poor fit]
59 | O=C(O)c1cccc(NC(=O)c2cccc(NC(=O)C3CCCO3)c2)c1 (stereo not drawn) | 8.91 µM [falling, partial curve] | –
60 | Cc1cc(C)c2c(CN3CCN(Cc4ccccc4)CC3)cc(=O)oc2c1C | 3.16 µM [rising, single point] | –
61 | CCOC(=O)c1sc(N=NC2=C(O)CC(C)(C)CC2=O)c(C(=O)OCC)c1C | 3.16 µM [falling, single point] | 3.98 µM [rising, partial curve, poor fit]
62 | COc1ccc2c3n([n+]([O-])c2c1)CCN=C3c1cc(Cl)c(N)c(Cl)c1 | 23.1 µM [falling, partial curve] | –
63 | Cc1ccc(OCC(=O)O/N=C(\N)c2ccccn2)cc1 | 11.2 µM [falling, partial curve] | –

18 compounds from above, sorted by formula weight, high to low:
Row | SMILES | AC50 [1] | AC50 [2]
7 | O=c1cc(-c2ccccc2Cl)oc2c(NS(=O)(=O)c3ccccc3OC(F)(F)F)ccc(O)c12 | 35.5 µM [falling, single point] | –
6 | CCCCNS(=O)(=O)c1ccc2nc(-c3cccnc3)cc(C(=O)NC3CCCC3)c2c1 | 1.12 µM [rising, partial curve, poor fit] | –
24 | COc1cc(OC)cc(C(=O)NC(=S)Nc2nc(-c3cc4ccccc4o3)cs2)c1 | 0.112 µM [rising, full curve, poor fit] | –
42 | Cc1ccc(S(=O)(=O)N2CCN(C(=O)Cn3nc(C)c([N+](=O)[O-])c3C)CC2)c(C)c1 | 15.8 µM [falling, single point] | –
1 | COCCCNC(=O)Cn1nnc(-c2ccc(NC(=O)c3ccccc3OC)cc2)n1 | 6.31 µM [falling, partial curve, poor fit] | –
33 | C/C(=N\NC(=O)CNc1cccc(C(F)(F)F)c1)c1cccc(Br)c1 | – | 16.4 µM [rising, partial curve, poor fit]
30 | COc1ccc(OCc2nnc(SCC(=O)Nc3ccccc3Cl)o2)cc1 | 3.55 µM [falling, single point] | –
22 | CCN(CC)Cc1cc2[nH]c3c4ccc(Cl)cc4ncc3c2cc1OC | 8.91 µM [falling, partial curve, poor fit] | –
59 | O=C(O)c1cccc(NC(=O)c2cccc(NC(=O)C3CCCO3)c2)c1 (stereo not drawn) | 8.91 µM [falling, partial curve] | –
28 | CCNC(=O)N(C)C[C@H]1N[C@@](C)(C(=O)OC)[C@H]2C(=O)N(C)C(=O)[C@@H]12 | 25.9 µM [rising, single point] | –
46 | NC(=S)N/N=C/c1ccc(-c2ccc(Cl)c(Cl)c2)o1 | 20.6 µM [falling, partial curve] | 20.6 µM [falling, single point]
49 | COc1ccccc1OCC(=O)Nc1ccc(Cl)cc1 | 18.4 µM [falling, partial curve] | –
57 | CC(C)(C)c1cnnn1-c1ccc(C(=O)CCl)cc1 | 29.1 µM [falling, single point] | –
12 | COc1cccc(C(=O)Nc2ccc(F)cc2F)c1 | 23.1 µM [falling, partial curve, poor fit] | –
19 | O=C(CC(=O)c1ccccc1)Nc1cccnc1 | 18.4 µM [falling, partial curve] | –
18 | CCOC(=O)/C(C#N)=C/NC(=O)NC(C)(C)C | 6.51 µM [falling, partial curve, poor fit] | –
54 | COC(=O)C1C(=O)c2c(C)noc2CC1(C)C (stereo not drawn) | 14.1 µM [rising, single point] | –
13 | CCCCN1C(=O)CC(C(=O)OCC)=C1C | 5.62 µM [falling, single point] | –
